Measured values taken from patent US20220175761A1, “BI-LIGAND DRUG CONJUGATE AND USE THEREOF” (COHERENT BIOPHARMA (SUZHOU), LIMITED, priority 2019, published 2022).
At least one structure is not confirmed: it was looked up by name or label, or the drawing left a doubt.

Amino acid sequences for entries named in this document (tags omitted). Residues count along the entry.
UniProt P15328, 25-233 limits assumed: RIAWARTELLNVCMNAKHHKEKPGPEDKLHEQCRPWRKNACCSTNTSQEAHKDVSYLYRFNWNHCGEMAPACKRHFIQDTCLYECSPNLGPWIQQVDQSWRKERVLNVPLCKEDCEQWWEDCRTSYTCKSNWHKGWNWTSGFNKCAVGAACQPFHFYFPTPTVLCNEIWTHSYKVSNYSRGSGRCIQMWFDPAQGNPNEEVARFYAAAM

Target: T1, FOLR1 (Homo sapiens, UniProt P15328)
T1 construct: purchased R&D System 5646-FR
Assay: BIAcore T200 binding affinity to FOLR1 (CM5 chip conjugated with FOLR1)
Conditions: FOLR1 on CM5 chip; N/D = no specific binding was detected
Text: Buffer: HBS-EP+ buffer 10× (GE, Cat #: BR100669), diluted 10 folds with deionized water before use.
In the experiment, CM5 chip was conjugated with ligand FOLR1 (R&D System, Cat #: 5646-FR).

Structure (SMILES): Nc1nc(=O)c2nc(CNc3ccc(C(=O)N[C@@H](CCC(=O)O)C(=O)O)cc3)cnc2[nH]1 [FA (folate), folate]
- ka: 3.34e+06 M⁻¹ s⁻¹
- kd: 0.000226 s⁻¹
